Compound in this experiment: Nc1ncnc2c1ncn2[C@@H]1O[C@H](COP(=O)(O)OP(=O)(O)NP(=O)(O)O)[C@@H](O)[C@H]1O [adenylyl imidodiphosphate]
The experiment in a line: NP40-soluble protein abundance relative to vehicle (solubility fold change) (ratio); higher = more soluble protein in presence of AMP-PNP. The method, boiled down:
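Crude Jurkat lysate, prepared by Dounce homogenisation, was exposed to eight concentrations from 0.1 to 10 mM for 10 min at room temperature and then 3 min at 37 °C. Solubilisation used 0.8% NP40 with benzonase for 60 min at 4 °C, followed by ultracentrifugation and TMT labelling of the supernatant for LC-MS/MS. After vsn normalisation of intensities, each value is the fold change against the detergent-processed vehicle within each replicate, across three independent experiments.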

The chains behind the UniProt entries cited, without tags or fusion partners. Where a name states a change or a piece, a line headed by the entry shows the natural chain unless it says otherwise.
UniProt Q9Y5T5, whole entry, looked up: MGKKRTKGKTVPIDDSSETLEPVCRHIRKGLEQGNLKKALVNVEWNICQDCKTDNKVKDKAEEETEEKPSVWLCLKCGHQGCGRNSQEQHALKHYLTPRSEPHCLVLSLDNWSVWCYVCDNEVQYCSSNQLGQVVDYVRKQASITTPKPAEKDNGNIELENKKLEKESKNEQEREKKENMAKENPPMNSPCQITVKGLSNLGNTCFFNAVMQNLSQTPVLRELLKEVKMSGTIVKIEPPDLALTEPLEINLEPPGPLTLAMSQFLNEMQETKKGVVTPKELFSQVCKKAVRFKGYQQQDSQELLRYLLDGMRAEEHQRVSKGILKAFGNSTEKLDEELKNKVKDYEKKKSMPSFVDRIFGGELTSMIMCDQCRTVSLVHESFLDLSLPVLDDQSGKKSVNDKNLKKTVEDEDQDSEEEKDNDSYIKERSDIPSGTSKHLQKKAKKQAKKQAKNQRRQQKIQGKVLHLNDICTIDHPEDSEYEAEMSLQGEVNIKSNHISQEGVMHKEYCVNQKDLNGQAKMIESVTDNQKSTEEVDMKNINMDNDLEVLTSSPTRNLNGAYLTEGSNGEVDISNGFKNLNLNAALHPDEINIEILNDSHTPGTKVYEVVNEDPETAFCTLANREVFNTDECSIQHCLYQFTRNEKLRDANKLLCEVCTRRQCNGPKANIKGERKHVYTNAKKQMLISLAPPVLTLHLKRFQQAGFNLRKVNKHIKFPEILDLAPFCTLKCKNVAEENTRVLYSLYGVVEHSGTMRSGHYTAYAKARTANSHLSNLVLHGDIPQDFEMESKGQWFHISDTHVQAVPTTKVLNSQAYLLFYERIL
UniProt Q9Y657, whole entry: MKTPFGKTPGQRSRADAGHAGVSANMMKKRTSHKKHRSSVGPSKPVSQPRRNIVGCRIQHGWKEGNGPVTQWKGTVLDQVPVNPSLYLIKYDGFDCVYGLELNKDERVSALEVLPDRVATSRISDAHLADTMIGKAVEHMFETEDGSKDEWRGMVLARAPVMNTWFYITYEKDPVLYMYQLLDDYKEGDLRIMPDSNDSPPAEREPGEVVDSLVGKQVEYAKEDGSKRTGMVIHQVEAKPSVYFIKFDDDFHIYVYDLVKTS
UniProt V9HW75, whole entry, looked up: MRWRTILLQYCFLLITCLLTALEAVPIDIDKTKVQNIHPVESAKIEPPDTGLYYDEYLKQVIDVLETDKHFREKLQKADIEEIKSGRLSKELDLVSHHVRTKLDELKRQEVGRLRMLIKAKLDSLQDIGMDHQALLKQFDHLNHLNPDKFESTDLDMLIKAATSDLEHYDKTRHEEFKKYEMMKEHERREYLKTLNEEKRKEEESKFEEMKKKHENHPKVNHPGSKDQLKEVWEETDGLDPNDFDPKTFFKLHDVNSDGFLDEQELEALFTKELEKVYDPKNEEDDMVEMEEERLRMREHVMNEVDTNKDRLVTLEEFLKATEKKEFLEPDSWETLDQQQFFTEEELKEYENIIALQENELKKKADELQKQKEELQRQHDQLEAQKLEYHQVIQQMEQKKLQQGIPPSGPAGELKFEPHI
UniProt Q9UBI1, whole entry: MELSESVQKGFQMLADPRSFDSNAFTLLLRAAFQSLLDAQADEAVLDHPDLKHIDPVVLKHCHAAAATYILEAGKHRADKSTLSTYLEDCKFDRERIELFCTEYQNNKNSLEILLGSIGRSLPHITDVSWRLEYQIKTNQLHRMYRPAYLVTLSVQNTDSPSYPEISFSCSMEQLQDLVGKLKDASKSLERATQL
UniProt Q9Y6A4: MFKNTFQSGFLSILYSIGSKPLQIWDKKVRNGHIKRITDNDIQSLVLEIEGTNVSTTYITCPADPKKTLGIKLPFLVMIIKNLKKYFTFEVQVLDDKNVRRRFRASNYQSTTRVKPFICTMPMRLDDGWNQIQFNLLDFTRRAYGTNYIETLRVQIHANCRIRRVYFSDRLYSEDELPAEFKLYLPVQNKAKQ
UniProt Q9Y3X0: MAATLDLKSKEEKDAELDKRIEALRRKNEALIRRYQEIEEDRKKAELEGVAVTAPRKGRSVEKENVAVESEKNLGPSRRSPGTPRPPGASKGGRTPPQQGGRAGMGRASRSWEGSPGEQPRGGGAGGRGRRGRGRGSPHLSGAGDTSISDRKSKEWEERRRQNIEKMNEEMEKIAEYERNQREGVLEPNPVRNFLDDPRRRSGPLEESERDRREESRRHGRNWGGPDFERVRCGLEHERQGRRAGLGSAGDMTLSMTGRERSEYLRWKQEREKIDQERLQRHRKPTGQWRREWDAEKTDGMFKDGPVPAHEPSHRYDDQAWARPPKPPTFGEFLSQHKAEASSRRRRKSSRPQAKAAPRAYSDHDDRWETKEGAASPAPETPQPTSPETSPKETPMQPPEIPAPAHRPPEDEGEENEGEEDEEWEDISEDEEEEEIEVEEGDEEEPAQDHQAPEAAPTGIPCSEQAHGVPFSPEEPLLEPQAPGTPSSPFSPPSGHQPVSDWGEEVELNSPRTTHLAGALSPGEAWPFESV
UniProt Q9Y4C4: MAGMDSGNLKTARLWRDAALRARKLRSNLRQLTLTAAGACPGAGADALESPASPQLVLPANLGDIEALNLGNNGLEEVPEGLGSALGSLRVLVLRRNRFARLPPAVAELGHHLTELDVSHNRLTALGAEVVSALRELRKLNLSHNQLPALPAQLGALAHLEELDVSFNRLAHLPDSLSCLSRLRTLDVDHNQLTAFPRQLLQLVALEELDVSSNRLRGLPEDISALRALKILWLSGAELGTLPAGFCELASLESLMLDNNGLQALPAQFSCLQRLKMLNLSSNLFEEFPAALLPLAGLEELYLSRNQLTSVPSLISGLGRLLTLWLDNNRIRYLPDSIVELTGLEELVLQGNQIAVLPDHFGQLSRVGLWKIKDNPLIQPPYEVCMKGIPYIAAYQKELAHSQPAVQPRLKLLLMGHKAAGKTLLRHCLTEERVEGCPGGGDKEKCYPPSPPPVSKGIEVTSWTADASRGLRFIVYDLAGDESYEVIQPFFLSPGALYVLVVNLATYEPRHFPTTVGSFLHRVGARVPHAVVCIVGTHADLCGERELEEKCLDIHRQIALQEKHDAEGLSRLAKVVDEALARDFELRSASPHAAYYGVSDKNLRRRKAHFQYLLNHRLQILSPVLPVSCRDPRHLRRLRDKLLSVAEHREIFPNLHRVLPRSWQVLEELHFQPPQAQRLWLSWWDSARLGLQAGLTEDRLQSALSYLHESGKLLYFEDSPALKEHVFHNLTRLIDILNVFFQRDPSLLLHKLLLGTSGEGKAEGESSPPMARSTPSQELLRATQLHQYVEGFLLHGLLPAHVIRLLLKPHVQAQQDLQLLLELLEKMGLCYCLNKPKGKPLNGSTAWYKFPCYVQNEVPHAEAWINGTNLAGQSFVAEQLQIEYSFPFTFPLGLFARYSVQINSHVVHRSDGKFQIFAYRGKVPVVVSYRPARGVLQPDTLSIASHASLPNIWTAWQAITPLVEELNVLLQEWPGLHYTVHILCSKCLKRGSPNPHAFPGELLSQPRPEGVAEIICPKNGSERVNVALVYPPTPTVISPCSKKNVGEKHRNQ
UniProt Q9Y6Y8: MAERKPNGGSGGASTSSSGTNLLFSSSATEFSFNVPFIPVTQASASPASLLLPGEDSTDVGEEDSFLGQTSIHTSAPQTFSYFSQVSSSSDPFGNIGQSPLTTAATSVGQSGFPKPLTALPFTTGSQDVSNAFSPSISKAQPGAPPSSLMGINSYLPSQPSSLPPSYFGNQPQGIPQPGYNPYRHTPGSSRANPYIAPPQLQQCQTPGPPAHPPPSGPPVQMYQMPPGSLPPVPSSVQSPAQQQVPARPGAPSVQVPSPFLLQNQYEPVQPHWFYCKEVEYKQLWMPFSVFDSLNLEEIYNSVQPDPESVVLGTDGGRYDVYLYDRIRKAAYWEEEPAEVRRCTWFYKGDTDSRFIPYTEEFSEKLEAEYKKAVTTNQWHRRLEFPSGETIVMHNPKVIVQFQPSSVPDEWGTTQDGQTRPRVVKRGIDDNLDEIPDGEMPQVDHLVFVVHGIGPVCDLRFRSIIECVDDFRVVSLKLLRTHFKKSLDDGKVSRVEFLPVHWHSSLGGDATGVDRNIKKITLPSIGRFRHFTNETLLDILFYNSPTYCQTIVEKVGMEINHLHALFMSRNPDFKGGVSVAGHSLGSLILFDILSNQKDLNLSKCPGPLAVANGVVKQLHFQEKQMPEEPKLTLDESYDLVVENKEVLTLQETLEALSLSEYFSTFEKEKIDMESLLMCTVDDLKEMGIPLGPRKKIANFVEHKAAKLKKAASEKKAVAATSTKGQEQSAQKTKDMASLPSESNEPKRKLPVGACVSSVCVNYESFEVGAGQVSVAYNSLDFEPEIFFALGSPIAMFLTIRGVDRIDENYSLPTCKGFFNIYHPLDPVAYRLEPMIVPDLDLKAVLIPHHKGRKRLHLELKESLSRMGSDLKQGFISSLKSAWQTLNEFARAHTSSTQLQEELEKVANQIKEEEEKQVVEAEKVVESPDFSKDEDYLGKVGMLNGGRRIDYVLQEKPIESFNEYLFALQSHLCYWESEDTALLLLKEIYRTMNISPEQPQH
UniProt Q9Y4Y9: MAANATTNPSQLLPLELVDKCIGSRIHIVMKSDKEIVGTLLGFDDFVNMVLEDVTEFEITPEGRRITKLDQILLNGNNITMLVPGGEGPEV
UniProt Q9Y547: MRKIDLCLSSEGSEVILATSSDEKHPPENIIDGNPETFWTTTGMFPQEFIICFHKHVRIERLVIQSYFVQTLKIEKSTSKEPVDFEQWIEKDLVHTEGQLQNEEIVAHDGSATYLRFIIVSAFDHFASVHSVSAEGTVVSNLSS
UniProt Q9Y3Y2: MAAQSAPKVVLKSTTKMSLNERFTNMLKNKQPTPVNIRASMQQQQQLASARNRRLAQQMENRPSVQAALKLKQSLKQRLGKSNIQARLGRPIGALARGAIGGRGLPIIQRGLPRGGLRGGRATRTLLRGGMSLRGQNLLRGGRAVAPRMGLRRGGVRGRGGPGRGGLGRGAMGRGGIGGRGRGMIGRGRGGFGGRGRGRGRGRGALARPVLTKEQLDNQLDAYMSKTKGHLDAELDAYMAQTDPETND
UniProt Q9Y6W5, whole entry: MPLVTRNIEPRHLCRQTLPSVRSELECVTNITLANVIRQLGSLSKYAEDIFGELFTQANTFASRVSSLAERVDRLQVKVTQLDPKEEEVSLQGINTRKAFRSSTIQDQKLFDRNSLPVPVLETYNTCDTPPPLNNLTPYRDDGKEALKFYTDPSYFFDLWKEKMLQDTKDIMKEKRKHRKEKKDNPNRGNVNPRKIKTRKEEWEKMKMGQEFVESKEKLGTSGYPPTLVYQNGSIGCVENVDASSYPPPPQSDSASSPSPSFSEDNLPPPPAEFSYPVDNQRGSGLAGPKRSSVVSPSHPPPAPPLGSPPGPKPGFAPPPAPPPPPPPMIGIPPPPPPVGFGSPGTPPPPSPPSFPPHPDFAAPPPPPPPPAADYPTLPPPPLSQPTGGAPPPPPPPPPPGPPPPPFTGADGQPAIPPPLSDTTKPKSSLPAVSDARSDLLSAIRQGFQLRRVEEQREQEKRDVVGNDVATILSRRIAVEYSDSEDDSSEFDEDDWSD
UniProt Q9Y6J9: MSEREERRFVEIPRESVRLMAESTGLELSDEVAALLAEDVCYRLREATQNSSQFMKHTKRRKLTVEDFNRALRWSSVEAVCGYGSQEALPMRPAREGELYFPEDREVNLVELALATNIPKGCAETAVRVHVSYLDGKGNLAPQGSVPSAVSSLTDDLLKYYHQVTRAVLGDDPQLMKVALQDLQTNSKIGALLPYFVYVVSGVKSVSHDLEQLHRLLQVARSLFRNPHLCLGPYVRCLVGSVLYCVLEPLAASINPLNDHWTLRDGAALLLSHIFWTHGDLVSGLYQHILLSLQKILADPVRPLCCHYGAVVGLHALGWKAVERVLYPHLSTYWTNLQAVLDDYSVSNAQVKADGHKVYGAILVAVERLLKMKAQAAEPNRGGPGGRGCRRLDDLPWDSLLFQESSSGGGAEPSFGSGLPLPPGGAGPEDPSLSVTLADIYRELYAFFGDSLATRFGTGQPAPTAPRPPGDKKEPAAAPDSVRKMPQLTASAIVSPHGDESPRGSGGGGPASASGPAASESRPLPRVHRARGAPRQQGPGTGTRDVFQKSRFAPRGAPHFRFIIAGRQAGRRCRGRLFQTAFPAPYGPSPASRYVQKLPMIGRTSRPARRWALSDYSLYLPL

± gives the standard deviation of the averaged measurements. This is a selection; strong and weak results do not stand in their true shares.

As to UniProt Q9Y5T5 and related entries, the NP40-soluble protein abundance came to 1.04 ± 0.039 (concentration: 1mM); 1.09 ± 0.082 (concentration: 2mM); 1.13 ± 0.085 (concentration: 4mM); 1.15 ± 0.083 (concentration: 6mM); 1.17 ± 0.087 (concentration: 8mM); 1.25 ± 0.11 (concentration: 10mM).
As for SPIN1 (UniProt Q9Y657), the NP40-soluble protein abundance (concentration: 1mM) was found to be 1.07 ± 0.048; the NP40-soluble protein abundance (concentration: 2mM) is 1.09 ± 0.056; the NP40-soluble protein abundance (concentration: 4mM) was 1.09 ± 0.056; the NP40-soluble protein abundance (concentration: 6mM) was found to be 1.16 ± 0.15; the NP40-soluble protein abundance (concentration: 8mM) came to 1.17 ± 0.09; the NP40-soluble protein abundance (concentration: 10mM) came to 1.2 ± 0.12.
For the target UniProt V9HW75, the NP40-soluble protein abundance is, setting by setting: (concentration: 1mM) 1.129 ± 0.011; (concentration: 2mM) 1.26 ± 0.11; (concentration: 4mM) 1.19 ± 0.043; (concentration: 6mM) 1.17 ± 0.023; (concentration: 8mM) 1.19 ± 0.013; (concentration: 10mM) 1.15 ± 0.063.
As for “R4GMX3 and related entries (UniProt Q9UBI1)”, the NP40-soluble protein abundance is, setting by setting: (concentration: 1mM) 0.965 ± 0.036; (concentration: 2mM) 0.951 ± 0.021; (concentration: 4mM) 0.957 ± 0.018; (concentration: 6mM) 0.95 ± 0.022; (concentration: 8mM) 0.95 ± 0.034; (concentration: 10mM) 0.917 ± 0.019.
For UniProt Q9Y6A4, the NP40-soluble protein abundance turned out to be 0.952 ± 0.075 (concentration: 1mM); 0.892 ± 0.032 (concentration: 2mM); 0.968 ± 0.07 (concentration: 4mM); 1.03 ± 0.095 (concentration: 6mM); 1.12 ± 0.037 (concentration: 8mM); 1.04 ± 0.085 (concentration: 10mM).
In the case of CCDC9 (UniProt Q9Y3X0), the NP40-soluble protein abundance turned out to be 1.03 ± 0.022 (concentration: 1mM); 1.05 ± 0.06 (concentration: 2mM); 1.07 ± 0.042 (concentration: 4mM); 1.06 ± 0.058 (concentration: 6mM); 1.06 ± 0.016 (concentration: 8mM); 1.08 ± 0.064 (concentration: 10mM).
On to MFHAS1 (UniProt Q9Y4C4), for which the NP40-soluble protein abundance runs as follows: (concentration: 1mM) 1 ± 0.022; (concentration: 2mM) 0.988 ± 0.026; (concentration: 4mM) 0.992 ± 0.025; (concentration: 6mM) 0.962 ± 0.04; (concentration: 8mM) 0.998 ± 0.039; (concentration: 10mM) 1.02 ± 0.029.
As to SEC23IP (UniProt Q9Y6Y8), the NP40-soluble protein abundance came out at 1.02 ± 0.021 (concentration: 1mM); 0.989 ± 0.028 (concentration: 2mM); 0.9881 ± 0.0077 (concentration: 4mM); 0.965 ± 0.027 (concentration: 6mM); 0.961 ± 0.037 (concentration: 8mM); 0.951 ± 0.027 (concentration: 10mM).
With LSM5 (UniProt Q9Y4Y9), the NP40-soluble protein abundance runs as follows: (concentration: 1mM) 1.07 ± 0.06; (concentration: 2mM) 1.1 ± 0.048; (concentration: 4mM) 1.09 ± 0.074; (concentration: 6mM) 0.964 ± 0.016; (concentration: 8mM) 0.9747 ± 0.0087; (concentration: 10mM) 0.963 ± 0.086.
With HSPB11 (UniProt Q9Y547), the NP40-soluble protein abundance (concentration: 1mM) is 1.01 ± 0.032; the NP40-soluble protein abundance (concentration: 2mM) was determined as 0.959 ± 0.026; the NP40-soluble protein abundance (concentration: 4mM) is 0.995 ± 0.11; the NP40-soluble protein abundance (concentration: 6mM) worked out at 1.02 ± 0.12; the NP40-soluble protein abundance (concentration: 8mM) is 1.08 ± 0.087; the NP40-soluble protein abundance (concentration: 10mM) stood at 1.03 ± 0.14.
In the case of UniProt Q9Y3Y2 and related entries, the NP40-soluble protein abundance is, setting by setting: (concentration: 1mM) 1 ± 0.061; (concentration: 2mM) 1.01 ± 0.046; (concentration: 4mM) 1.03 ± 0.095; (concentration: 6mM) 1.04 ± 0.13; (concentration: 8mM) 1.08 ± 0.14; (concentration: 10mM) 1.2 ± 0.22.
For the target WASF2 (UniProt Q9Y6W5), the NP40-soluble protein abundance reads like this: (concentration: 1mM) 1 ± 0.058; (concentration: 2mM) 1.05 ± 0.019; (concentration: 4mM) 1 ± 0.042; (concentration: 6mM) 0.974 ± 0.055; (concentration: 8mM) 0.957 ± 0.056; (concentration: 10mM) 0.986 ± 0.043.
Turning to UniProt Q9Y5S9 and related entries, the NP40-soluble protein abundance runs as follows: (concentration: 1mM) 0.9846 ± 0.0015; (concentration: 2mM) 0.997 ± 0.059; (concentration: 4mM) 0.924 ± 0.033; (concentration: 6mM) 0.961 ± 0.031; (concentration: 8mM) 0.919 ± 0.025; (concentration: 10mM) 0.906 ± 0.011.
On to TAF6L (UniProt Q9Y6J9), for which the NP40-soluble protein abundance by setting is: (concentration: 1mM) 0.979 ± 0.052; (concentration: 2mM) 0.971 ± 0.029; (concentration: 4mM) 1.01 ± 0.057; (concentration: 6mM) 0.954 ± 0.058; (concentration: 8mM) 0.977 ± 0.061; (concentration: 10mM) 0.967 ± 0.036.

The values above are taken from the supplement of paper PMC6411743.
